PubChem BioAssay AID504786 | Drosophila RNAi Screening Center – 2011

Test: 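Positive regulators of HIF-driven reporter output in Drosophila cells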 (primary screen)
System: Drosophila S2 cells with a stable HIF luciferase reporter
Knock-down reagent: long dsRNA against Drosophila genes, about 0.2 µg dsRNA per well of a 384-well plate
Time to read-out: three days of knock-down, then 20 h of DFO before reading
Conditions: desferrioxamine (DFO) at 100 µM, an iron chelator that mimics hypoxia, for 20 h
Measurement: 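Firefly luciferase driven by the mouse ldh-a hypoxia-response element, measured after 20 h of 100 µM DFO; z-scores per plate, higher means more signal lost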
Reading the numbers: z-score: higher = stronger loss of HIF reporter signal
The deposit covers about 21,000 reagents; shown is a random part of those that have a named target and a result. 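Primary screen; positive scores mean lost reporter signal, so the sign may be inverted from the usual convention.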 The numbers tell different reagents against one gene apart. A plus sign joins genes that one reagent is predicted to hit. Further read-outs or replicates are left out here. No sequences are given here.

no.	predicted target	reagent no.	z-score, replicate 1	z-score, replicate 2
1	CG3285	1	-0.2	-0.3
2	Muc91C	1	-1.3	-0.7
3	Slimp	1	0.1	-0.1
4	Ns2	1	0.2	-0.2
5	CG17109	1	-0.5	-0.5
6	Eglp4	1	-0.2	-0.4
7	asun	1	-0.2	-0.1
8	l(3)73Ah	1	0	-0.1
9	esn	1	1	1.1
10	esn	2	-0.2	-0.6
11	Ada2b	1	0	0.5
12	eIF3a	1	7.4	5.4
13	Nmdar1	1	-0.1	0
14	Nmdar1	2	-0.3	-0.1
15	CG43901	1	-0.3	-0.3
16	CG43901	2	-0.3	-0.9
17	CG11741	1	-0.5	-0.8
18	bumpel	1	-0.3	-0.2
19	Rh2	1	0	0.7
20	cher	1	-0.1	-0.4
21	mago	1	1.5	1.5
22	CG17562	1	-0.2	-0.3
23	CG7611	1	-0.3	-0.2
24	CG14877	1	-0.4	-0.4
25	CG3368	1	-0.4	-0.4
26	CG42505 + CG42504 + CG31358	1	-0.3	-0.3
27	CG42505 + CG42504 + CG31358	2	-0.2	-0.2
28	CG42505 + CG42504 + CG31358	3	-0.2	-0.3
29	Mcm5	1	-0.1	0
30	ND-49L	1	0	-0.5
31	CG9902	1	-0.2	0.1
32	CG1246	1	-0.1	0.6
33	Mat89Ba	1	-0.1	1.1
34	Etf-QO	1	-0.2	0.3
35	CG10183	1	0	-0.1
36	CG14957	1	-0.5	-0.4
37	CG9330	1	-0.3	-0.4
38	sro	1	-0.1	1.4
39	AsnRS	1	0.2	2
40	RpS27	1	5.1	1.6

Targets listed so far whose target name begins with A or a:
predicted target	reagent no.	z-score, replicate 1	z-score, replicate 2
asun	1	-0.2	-0.1
Ada2b	1	0	0.5
AsnRS	1	0.2	2

Continued:
no.	predicted target	reagent no.	z-score, replicate 1	z-score, replicate 2
41	Tango6	1	-0.3	-0.2
42	Tcs4	1	-0.4	-0.3
43	CG13494	1	-0.2	-0.3
44	Secp43	1	-0.3	-0.2
45	CG34244	1	0.3	-0.1
46	Dis3l2	1	-0.2	-0.4
47	CG5509	1	-0.2	-0.5
48	Psf2	1	0.4	-0.1
49	Nepl21	1	-0.3	-0.3
50	CG15564	1	0.1	0.7
51	CG4115	1	-0.5	-0.5
52	CG31949	1	-0.1	-0.3
53	Cul3	1	0.4	0.3
54	prage	1	1	-0.4
55	prage	2	1.2	0.2
56	prage	3	0	-0.7
57	prage	4	-0.3	-0.8
58	polyph	1	0	0.1
59	MTPAP	1	-0.3	0.5
60	CR40450 + CG32767	1	-0.2	0.9
61	Desi	1	-0.1	-0.4
62	Acat2	1	-0.5	-0.8
63	CG15046	1	-0.3	-0.2
64	Vha13	1	0.4	-0.8
65	cnn	1	-0.2	-0.2
66	cnn	2	-0.4	-0.4
67	ND-B8	1	-0.3	0.2
68	Uro	1	-0.1	0.1
69	CG15888	1	-0.4	-0.2
70	CG31921	1	-0.4	0.2
71	CG15362	1	0	-0.5
72	TRAM	1	-0.2	-0.3
73	TRAM	2	-0.1	0
74	l(2)k05911	1	-0.4	-0.4
75	Hsc70-4	1	5.9	5.9
76	TTLL6B	1	-0.1	-0.8
77	BicD	1	-0.2	0
78	Ire1	1	-0.9	-0.8
79	Sf3a2	1	3.2	2.7
80	RfC4	1	-0.2	-0.1
81	Apc	1	0.1	0.2
82	IM33	1	-0.3	-0.2
83	Hmu	1	0	-0.1
84	Or47b	1	-0.2	0.1
85	Mal-A4	1	-0.3	-0.2
86	CG4577	1	-0.3	0.1
87	moon	1	-0.4	-1
88	GlcT	1	-0.4	-1.1
89	CG7514	1	-0.3	-0.7
90	Moe	1	0	0.6
91	CG9281	1	-0.3	-0.4
92	mthl1	1	-0.2	-0.3
93	CG34181	1	-0.1	0.4
94	CG18063	1	-0.3	-0.3
95	AttD	1	-0.3	-0.4
96	SIDL	1	-0.4	-0.7
97	CG13023	1	-0.4	-0.3
98	CG13023	2	-0.3	-0.5
99	CG34347	1	-0.2	-0.1
100	CG34347	2	0	0.6
101	CG34347	3	-0.1	1.1
102	CG34347	4	3.9	4.2
103	disp	1	-0.1	-0.1
104	Spg7	1	-0.3	-0.4
105	Brf	1	-0.4	0.1
106	Brf	2	0.2	2.3
107	Brf	3	-0.2	0.1
